We go through 17 molecules from PubChem BioAssay AID2685 (National Center for Advancing Translational Sciences (NCATS), 2010).

The other results are listed elsewhere or left out. Shown are side measurements of this screen, not its main read-out; they come without a call. Compounds called inactive in the main read-out are mostly missing here. The note in brackets gives the kind of curve behind each potency; many fits are weak.

A short description of this test: qHTS Assay for Lipid Storage Modulators in Drosophila S3 Cells.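 On cell number change: cells counted by Cell Tracker Red CMTPX staining in the red channel.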 Particulars: BODIPY lipid droplet fluorescence, 18-24 h; for cell number change: measured here: cell count max response, cells fed with added oleic acid. In outline: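 Drosophila S3 cells loaded with oleic acid (400 uM, as added) and compounds at several concentrations; lipid droplets imaged by 488-nm laser-scanning cytometry, 500–530 nm intensity and object ratio to cell channel. Percent activity normalized to 20 uM Triacsin C.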
On the technique in general: Quantitative high-throughput screening tests each substance at several concentrations.

Setting [1] is: measured here: cell number channel AC50, cells fed with added oleic acid.
Setting [2] is: measured here: lipid fluorescence (Fed channel) AC50, cells fed with added oleic acid.

The term AC50 denotes the midpoint of the concentration-response curve, whichever way the signal moves. Consider `CN(Cc1ccccc1)S(=O)(=O)c1cccc2cccnc12`, for which the cell number change is 127%. Further, the AC50 under setting [1] was 8.2 µM [rising, partial curve]. In addition, the AC50 under setting [2] was 4.11 µM [rising, partial curve].

In the case of `Cc1cc(=O)oc(C)c1C(=O)OCC(=O)c1ccccc1`, the cell number change was -18%. In addition, the concentration at half-maximal activity (AC50) under setting [2] is 6.51 µM [rising, single point]. Regarding `COC(=O)CSc1nc(-c2ccccc2)c2c(c1C#N)CCCC2`, the cell number change was found to be 41.1%. Also, under setting [1], the AC50 was 36.6 µM [rising, partial curve, poor fit].

Turning to `O=C(COC(=O)c1ccc2[nH]c3c(c2c1)CCCC3)Nc1ccc(Cl)cc1Cl`, the cell number change was -3.08%. As to `Cc1noc(C(=O)NCc2ccccc2)c1Cl`, the cell number change was -19.8%. The concentration at half-maximal activity (AC50) under setting [2] is 0.00517 µM [rising, full curve, poor fit]. Take `COc1cccc(-c2c(C#N)c(N)nc3c2c(C)nn3-c2ccccc2)c1O`: the AC50 under setting [1] was 6.51 µM [rising, single point].

As for `CC(=O)c1c(C(=O)O)[nH]c(C(=O)O)c1C`, the cell number change stood at 86.6%. In addition, the AC50 under setting [2] was 16.4 µM [rising, single point]. As for `CC1CC=C(c2ccccc2)C(=S)N1` (stereo not drawn), the cell number change was -33.3%. Besides, the AC50 under setting [1] is 9.2 µM [falling, partial curve]. Further, the AC50 under setting [2] was 1.64 µM [falling, full curve].

Turning to `COc1cc(CNn2c(C)n[nH]c2=S)cc(Br)c1OCC(=O)NC(C)(C)C`, the cell number change was -24%. The AC50 under setting [2] is 29.1 µM [falling, single point]. Take `COc1ccc(C)cc1NC(=O)CN1CCN(S(=O)(=O)c2ccc3ccccc3c2)CC1`: the cell number change was 1.5%. For the same molecule, the AC50 under setting [1] was 1.64 µM [falling, partial curve, poor fit]. The AC50 under setting [2] is 1.64 µM [falling, partial curve, poor fit]. For `COCCn1c(=S)[nH]c2sc3c(c2c1=O)CCC(C)C3` (stereo not drawn), the cell number change is -8.73%.

For `Cc1ccc(S(=O)(=O)N(C)S(=O)(=O)c2ccc(C)cc2)cc1`, the cell number change came out at 8.38%. For the same molecule, the AC50 under setting [2] was 7.31 µM [rising, partial curve, poor fit]. For the molecule `Cc1ccc(/C=N/n2cnnc2)s1`, the cell number change was -33.3%. Besides, under setting [1], the concentration at half-maximal activity (AC50) is 0.92 µM [falling, full curve]. Further, under setting [2], the AC50 is 32.6 µM [falling, single point]. As for `COC(=O)c1ccc(C2C(C#N)=C(C)NC3=C2C(=O)CC(C)(C)C3)cc1` (stereo not drawn), the cell number change was -28.2%. Further, the AC50 under setting [2] is 0.0731 µM [falling, full curve, poor fit]. As for `COCCCn1c(=O)c2sccc2n2c(CCCC(=O)NCc3cccc(OC)c3)nnc12`, the cell number change was 8.02%. Take `CCCn1c(N)c(N(CCOC)C(=O)c2cccc(F)c2)c(=O)[nH]c1=O`: the cell number change was -17.1%. With `Cc1ccc(/C=C/C(=O)Nc2ccncc2)o1`, the cell number change was 3.5%. For the same molecule, the AC50 under setting [2] is 29.1 µM [rising, single point].
